Results are given in words; binding and its absence hold for the method and conditions named. In cells and extracts the contact can be indirect. Some binding calls cover weakened binding; strength is not graded here. Where a sequence is shown, tags or fusion partners need not be part of it.
Legend:
Assay in all cases: pull-down
[1] = biological target: T1, GST-GLK1 (Arabidopsis thaliana) (UniProt Q9SIV3)
T1 sequence: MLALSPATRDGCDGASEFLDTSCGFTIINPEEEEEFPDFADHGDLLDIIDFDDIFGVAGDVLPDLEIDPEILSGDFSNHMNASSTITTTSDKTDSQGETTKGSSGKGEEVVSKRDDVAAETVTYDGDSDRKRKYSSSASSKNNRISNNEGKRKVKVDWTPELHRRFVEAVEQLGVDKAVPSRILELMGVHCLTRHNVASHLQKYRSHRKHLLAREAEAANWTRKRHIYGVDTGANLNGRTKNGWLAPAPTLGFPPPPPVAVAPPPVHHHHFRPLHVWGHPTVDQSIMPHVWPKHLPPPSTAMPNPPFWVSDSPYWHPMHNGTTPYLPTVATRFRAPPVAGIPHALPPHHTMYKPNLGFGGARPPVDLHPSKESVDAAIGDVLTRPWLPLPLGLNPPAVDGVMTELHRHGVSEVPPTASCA

[2] = biological target: T2, GST-CGA1 (Arabidopsis thaliana) (UniProt Q9SZI6)
T2 sequence: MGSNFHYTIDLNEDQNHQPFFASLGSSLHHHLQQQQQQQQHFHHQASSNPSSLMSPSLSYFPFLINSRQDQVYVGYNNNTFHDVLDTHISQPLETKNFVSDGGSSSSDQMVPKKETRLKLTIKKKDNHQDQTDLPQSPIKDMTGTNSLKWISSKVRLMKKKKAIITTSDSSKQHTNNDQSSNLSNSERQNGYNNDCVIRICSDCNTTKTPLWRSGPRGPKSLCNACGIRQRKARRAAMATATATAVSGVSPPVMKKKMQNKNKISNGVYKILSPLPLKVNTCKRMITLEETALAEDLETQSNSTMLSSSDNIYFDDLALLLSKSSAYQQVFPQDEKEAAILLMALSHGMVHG

[3] = biological target: T3, GST-GNC (Arabidopsis thaliana) (UniProt Q5HZ36)
T3 sequence: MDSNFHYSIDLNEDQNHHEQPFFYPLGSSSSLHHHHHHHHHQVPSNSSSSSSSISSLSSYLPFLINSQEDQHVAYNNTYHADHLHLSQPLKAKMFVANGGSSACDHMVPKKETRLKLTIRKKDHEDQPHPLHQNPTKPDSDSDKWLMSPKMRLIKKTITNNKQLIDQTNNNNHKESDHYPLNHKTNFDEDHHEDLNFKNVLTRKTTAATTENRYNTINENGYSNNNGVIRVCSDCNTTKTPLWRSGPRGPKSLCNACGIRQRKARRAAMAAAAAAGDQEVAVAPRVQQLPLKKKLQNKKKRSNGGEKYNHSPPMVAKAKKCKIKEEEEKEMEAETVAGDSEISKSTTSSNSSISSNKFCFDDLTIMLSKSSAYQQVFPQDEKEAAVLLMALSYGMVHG

[4] = biological target: T4, GST-GLK2 (Arabidopsis thaliana) (UniProt Q9FFH0)
T4 sequence: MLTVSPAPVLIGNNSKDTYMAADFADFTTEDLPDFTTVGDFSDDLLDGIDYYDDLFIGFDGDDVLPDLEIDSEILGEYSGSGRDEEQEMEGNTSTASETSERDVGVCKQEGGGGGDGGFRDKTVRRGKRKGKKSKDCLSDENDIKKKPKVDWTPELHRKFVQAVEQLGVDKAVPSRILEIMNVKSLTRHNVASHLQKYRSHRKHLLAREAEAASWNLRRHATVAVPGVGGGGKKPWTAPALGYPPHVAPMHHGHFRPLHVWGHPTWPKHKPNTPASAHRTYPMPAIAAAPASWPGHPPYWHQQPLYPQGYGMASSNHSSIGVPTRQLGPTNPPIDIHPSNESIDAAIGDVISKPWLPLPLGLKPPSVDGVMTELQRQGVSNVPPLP

binding [1]: binds
binding [2]: binds
binding [3]: binds
binding [4]: binds
B1: nDET1 (26-87 aa) (domain or fragment, UniProt P48732 26-87)
chain: NRARHFYENLVPSYTLYDVESPDHCFRKFTEDGLFLISFSRNHQELIVYRPSWLTYSTTDDS

— publication doi:10.1101/2022.09.30.510343
